The whole screen tested about 350,000 compounds, of which about 220 (0.063%) were called active. This list was built around the results that the source calls inconclusive (neither active nor inactive); the mix of calls is not that of the screen. Calls follow the shape of the dose curve; as a rule, active = well fitted activation curve with a large enough effect; inconclusive = small, poorly fitted or top-dose-only effect; inactive = no such curve, though single readings can be large or run the other way. Potencies of inconclusive entries are doubtful fits and often do not repeat.
Assay: qHTS for Activators of Integrin-Mediated Alleviation for Muscular Dystrophy; also: nearly all actives have a fitted effect of over 60% in size;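 as to activation: 100% = response of the positive control SU9516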
Settings: alpha7betagal myoblasts, beta-gal FDG fluorescence, 48 h; activation: at 38.3 µM (top of the series)
Summary of the method: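 Alpha7betagal+/- myoblasts (passage 13) were plated 16-24 hr, then exposed to compounds (1:260 dilution of DMSO stock) for 48 hours at 37C. After MPER lysis, β-galactosidase reporter activity was read as FDG fluorescence (ex 480/em 540) after 30 minutes.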
Potency is read from the fitted curve at half-maximal effect.

SMILES | Potency | activation
COc1ccc(C(=O)NCc2ccc3c(c2)cc(C)n3C)cc1OC | inconclusive: 2.51 µM [activator, full curve] | 
CC(=O)c1ccccc1C(=O)N1CCCC(C(=O)c2ccc(C(F)(F)F)cc2)C1 (stereo unspecified) | inconclusive: 5.01 µM [activator, single point] | 
COc1ccc(CN2CCN(Cc3cccc(Oc4ccccc4)c3)CC2)c(OC)c1OC |  | inactive: 13.6%
COc1ccc(NC(=S)N(CCN2CCOCC2)C2CCN(C(C)=O)CC2)cc1Cl | inconclusive: 5.01 µM [activator, single point] | 
CSc1ccc(C(=S)N2CCCC2)cc1 | inconclusive: 3.16 µM [activator, single point] | 
CC(=O)Nc1ccc(S(=O)(=O)NNC(=O)c2cccc([N+](=O)[O-])c2)cc1 | inconclusive: 5.01 µM [activator, single point] | 
CCN(CC)S(=O)(=O)c1cnccc1N1CCN(c2cccc(Cl)c2)CC1 |  | inactive: -14.9%
COc1ccc(C(C#N)N2CCC(c3ccccc3)=N2)cc1OC (stereo unspecified) | inconclusive: 11.2 µM [activator, partial curve, poor fit] | 
CCN1CCN(c2cc(N3CCN(C(=O)c4ccco4)CC3)c3c4c(onc24)-c2ccccc2C3=O)CC1 |  | inactive: -69.9%
COc1ccc(N2C(=O)c3ccccc3NC2(C)C)cc1 | inconclusive: 2.24 µM [activator, partial curve, poor fit] | 
O=C(/C=C1\NCC2c3ccccc3CCN2C1=O)c1ccccc1 (stereo unspecified) | inconclusive: 10 µM [activator, partial curve, poor fit] | 
Cc1cccc(N2CCN(C(=S)Nc3ccc4nc(N5CCOCC5)cc(C)c4c3)CC2C)c1 (stereo unspecified) | inconclusive: 1.78 µM [activator, partial curve, poor fit] | 
O=C1C2C3CCC(CC3)C2C(=O)N1c1ccccc1 (stereo unspecified) | inconclusive: 3.55 µM [activator, partial curve, poor fit] | 
COc1ccccc1N1Cc2ccc(OC)c(OC)c2C1=O | inconclusive: 28.2 µM [activator, single point] | 
COc1cc(NC(=O)c2cc(Cl)ccc2Cl)ccc1-c1cc2ccccc2oc1=O |  | inactive: -12%
N/C(=N\NC(=O)c1ccccc1Cl)c1cc2ccccc2oc1=O | inconclusive: 2.51 µM [activator, partial curve, poor fit] | 
O=C(CCCN1C(=O)/C(=C\c2cccs2)SC1=S)Nc1ccc(O)cc1C(=O)O |  | inactive: -43.1%
CC(=O)c1cccc(N2C(=O)C3C(C(=O)Nc4cc(C)on4)C4(C)C=CC3(O4)C2C(=O)NC(C)(C)C)c1 (stereo unspecified) | inconclusive: 8.91 µM [activator, single point] | 
Cc1ccc(Cn2nnc3c(=O)n(Cc4cccc(C)c4)cnc32)cc1 | inconclusive: 8.91 µM [activator, partial curve, poor fit] | 
CC1=NN(c2ccccc2)C(=O)/C1=C/C=C/c1ccccc1 |  | inactive: -37.9%
COC(=O)c1cc(N=CC2=C(O)CC(C)(C)CC2=O)cc(C(=O)OC)c1 | inconclusive: 28.2 µM [activator, single point] | 
O=C(Nc1ccc(F)cc1)c1ccc(S(=O)(=O)N2CCCC2)cc1 | inconclusive: 5.01 µM [activator, partial curve, poor fit] | 

Some values from the results shown.
Cc1cccc(N2CCN(C(=S)Nc3ccc4nc(N5CCOCC5)cc(C)c4c3)CC2C)c1 (stereo unspecified) – Potency: inconclusive: 1.78 µM [activator, partial curve, poor fit]
COc1ccc(NC(=S)N(CCN2CCOCC2)C2CCN(C(C)=O)CC2)cc1Cl – Potency: inconclusive: 5.01 µM [activator, single point]
CC(=O)c1ccccc1C(=O)N1CCCC(C(=O)c2ccc(C(F)(F)F)cc2)C1 (stereo unspecified) – Potency: inconclusive: 5.01 µM [activator, single point]
COc1ccc(C(=O)NCc2ccc3c(c2)cc(C)n3C)cc1OC – Potency: inconclusive: 2.51 µM [activator, full curve]
N/C(=N\NC(=O)c1ccccc1Cl)c1cc2ccccc2oc1=O – Potency: inconclusive: 2.51 µM [activator, partial curve, poor fit]

(further entries)

SMILES | Potency | activation
Cc1cc(C(=O)N/N=C2\CCCC(=O)C2)c2ccccc2n1 | inconclusive: 20 µM [activator, partial curve, poor fit] | 
Cc1cc(C)n(CCNC(=O)c2ccc3c(c2)OCO3)n1 | inconclusive: 2.82 µM [activator, single point] | 
N#Cc1ccc(NC(=O)c2cc(=O)c3ccccc3o2)cc1 | inconclusive: 0.501 µM [activator, full curve, poor fit] | 
COc1cc(NC(=O)NCC2CCN(Cc3ccc(C)cc3)CC2)cc(OC)c1OC | inconclusive: 10 µM [activator, partial curve] | 
O=C(COC(=O)Cc1ccc(Cl)cc1)NCCc1ccccc1 | inconclusive: 5.01 µM [activator, single point] | 
COc1cc(OC)cc(-c2nc(-c3cccs3)no2)c1 |  | inactive: 13.2%
O=[N+]([O-])c1ccc(Nc2nc(N3CCOCC3)nc(N3CCOCC3)n2)cc1 | inconclusive: 10 µM [activator, partial curve, poor fit] | 
CC(C)CCN(CC(=O)NCc1ccc(F)cc1)S(=O)(=O)c1ccccc1F | inconclusive: 5.01 µM [activator, single point] | 
Cc1oc(-c2ccccc2)cc1C(=O)NC1CCN(Cc2ccccc2)CC1 | inconclusive: 2.24 µM [activator, partial curve, poor fit] | 
CC1C/C(=N\Nc2ccc(S(N)(=O)=O)cc2[N+](=O)[O-])CC(C)(C)C1 (stereo unspecified) |  | inactive: 33.7%
Nc1ccc(C#Cc2ccc3oc4ccccc4c(=O)c3c2)cc1 | inconclusive: 3.55 µM [activator, single point] | 
COc1cc(C2NC(=O)NC(C)=C2C(=O)OCC2CCCCC2)cc(Cl)c1O (stereo unspecified) | inconclusive: 14.1 µM [activator, partial curve, poor fit] | 
COC(=O)C1=CN(c2cc(C)cc(C)c2)C=C(C(=O)OC)C1c1ccc(OC)c(O)c1 | inconclusive: 28.2 µM [activator, single point] | 
CN(C)c1ccc(-n2cccc2)cc1 |  | inactive: 6.16%
COc1ccc(CC(=O)NCC2CCCN(Cc3ccccc3OC)C2)cc1 (stereo unspecified) | inconclusive: 5.01 µM [activator, single point] | 
O=C(c1ccc2c(c1)OCO2)C1CCCN(Cc2cccn2-c2cccnc2)C1 (stereo unspecified) |  | inactive: 17.8%
CCCCCCCCn1c2c(c(=N)c3ccccc31)CCC2 |  | inconclusive: -73.2% [activator]
O=C(/C(=C/O)N=Nc1ccccc1)c1ccco1 | inconclusive: 11.2 µM [activator, single point] | 
O=C(O)c1ccc2c(c1)C(=O)N(C(Cc1ccc(O)cc1)C(=O)O)C2=O (stereo unspecified) |  | inactive: -8.48%
CCOc1ccc(CCNC(=O)c2c(C)nn(-c3ccccc3)c2Cl)cc1OCC |  | inactive: -23.5%
O=C(O)c1ccccc1SCc1nc2ccccn2c1Br | inconclusive: 2.24 µM [activator, partial curve, poor fit] | 
COc1ccc(C(=O)NCc2n[nH]c(=S)n2-c2ccccc2)cc1OC | inconclusive: 10 µM [activator, partial curve, poor fit] | 

SMILES | Potency | activation
Cn1cnc2c(=O)sc3ccccc3c21 | inconclusive: 28.2 µM [activator, single point] | 
Nc1nc(Nc2ccccc2Cl)cc(=O)[nH]1 | inconclusive: 11.2 µM [activator, single point] | 
Cc1cc(C(=O)COC(=O)c2n[nH]c3ccccc23)c(C)n1C | inconclusive: 7.94 µM [activator, partial curve, poor fit] | 
Cc1cc(-c2n[nH]c(=S)n2-c2ccc(F)cc2)nn1C | inconclusive: 5.01 µM [activator, single point] | 
COc1ccccc1-n1cc2ccc([N+](=O)[O-])cc2n1 |  | inactive: 1.39%
COc1cc(/C=C(/C#N)c2nc3ccccc3[nH]2)ccc1OCc1ccc(C(=O)O)o1 | inconclusive: 0.891 µM [activator, full curve, poor fit] | 
Cc1ccc2nc(C)cc(N/N=C/c3ccccc3O)c2c1 |  | inactive: -31.2%
CCCn1c(SCC(=O)NNC(=O)c2ccc(OC)cc2)nnc1C(C)C | inconclusive: 10 µM [activator, single point] | 
Cc1ccccc1OCC(=O)OCC(=O)Nc1cc(C(F)(F)F)ccc1N1CCOCC1 | inconclusive: 0.501 µM [activator, full curve, poor fit] | 
COc1ccc(CCN=C(N)NS(=O)(=O)c2cc(F)ccc2OC)cc1 | inconclusive: 5.01 µM [activator, single point] | 
CCOC(=O)c1[nH]c2ccc(OC)cc2c1NC(=O)c1nonc1C | inconclusive: 3.55 µM [activator, partial curve, poor fit] | 
N#Cc1ccsc1NC(=O)CCc1ccccc1 | inconclusive: 3.55 µM [activator, partial curve, poor fit] | 
CC(C)OCCCNc1ncnc2c1nc1n2CCCC1 | inconclusive: 5.01 µM [activator, single point] | 
CCN(Cc1ccccc1)S(=O)(=O)c1ccc(C(=O)N(CCCN(C)C)c2nc3c(F)cccc3s2)cc1 | inconclusive: 1 µM [activator, partial curve, poor fit] | 
Cc1ccc(C(=O)CSc2nc3ccc(C(=O)NCCN4CCCCC4)cc3c(=O)[nH]2)cc1 | inconclusive: 5.01 µM [activator, single point] | 
CN(C(=O)CSc1nnc(-c2ccc(Cl)cc2)n1C)C1CCS(=O)(=O)C1 (stereo unspecified) | inconclusive: 25.1 µM [activator, single point] | 
C/C(=N/NC(=O)c1nnn(-c2nonc2N)c1-c1ccccc1)c1ccncc1 |  | inactive: -17.3%
CCOCC(=O)Nc1c(C(=O)Nc2ccc3c(c2)OCO3)oc2ccccc12 | inconclusive: 14.1 µM [activator, single point] | 
CCOC(=O)n1c(=O)oc2cc(S(=O)(=O)N3CCCCC3)ccc21 |  | inactive: -8%
COc1ccc(OC)c(-c2csc(NC(=O)COC(=O)c3ccc(NC(=O)CC#N)cc3)n2)c1 |  | inactive: 38.8%
Cc1cccc(NC(=O)Nc2ccc(Br)cc2)n1 | inconclusive: 12.6 µM [activator, partial curve, poor fit] | 
NS(=O)(=O)c1ccc(-n2cccc2C=O)cc1 | inconclusive: 3.16 µM [activator, single point] | 
